This assay deals with p21 (Cip1, Waf1, cyclin-dependent kinase inhibitor 1A) (human (endogenous in PPC1)) (UniProt P38936). Put plainly: co-IP; PPC1 cells transfected with pcDNA3-HA-MAGE-A12, 48 h; lysis in 1% NP-40 buffer; IP with antibodies to p21 or control rabbit IgG, immunoblot with anti-HA.

Chains of the proteins cited; added tags and fusions are not shown.
UniProt P38936: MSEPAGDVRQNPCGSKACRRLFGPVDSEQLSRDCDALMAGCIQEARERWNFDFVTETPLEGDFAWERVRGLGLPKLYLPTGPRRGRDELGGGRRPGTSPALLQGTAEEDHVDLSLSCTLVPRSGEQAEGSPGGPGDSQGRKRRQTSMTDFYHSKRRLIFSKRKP
UniProt P43365: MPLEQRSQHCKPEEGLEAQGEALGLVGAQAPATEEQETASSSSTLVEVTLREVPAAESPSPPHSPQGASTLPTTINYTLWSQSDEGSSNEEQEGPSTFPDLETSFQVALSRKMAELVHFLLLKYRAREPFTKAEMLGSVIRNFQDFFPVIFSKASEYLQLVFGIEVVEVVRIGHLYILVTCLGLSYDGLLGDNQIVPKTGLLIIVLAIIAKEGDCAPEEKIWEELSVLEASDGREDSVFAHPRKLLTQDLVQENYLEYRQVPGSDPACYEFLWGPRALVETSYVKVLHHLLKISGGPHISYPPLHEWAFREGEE

Results are given in words; binding and its absence hold for the method and conditions named. Binding seen in cells or lysates may run through a third protein. Some results given as binding are weak or reduced against the parent protein; the word gives no strength.

On to “HA-tagged MAGE-A12 (from UniProt P43365 1-314)”, for which the binding result was “binds”.

The values are drawn from PMC5620269.
